Experimental data published in publication PMC13581290, “A systematic interactome of Saccharomyces cerevisiae SET1C expands its functional landscape and identifies candidate regulatory connections” (eLife, 2026).

Sequences of proteins named here, by UniProt entry; tags and fusion partners are left off.
UniProt P22082: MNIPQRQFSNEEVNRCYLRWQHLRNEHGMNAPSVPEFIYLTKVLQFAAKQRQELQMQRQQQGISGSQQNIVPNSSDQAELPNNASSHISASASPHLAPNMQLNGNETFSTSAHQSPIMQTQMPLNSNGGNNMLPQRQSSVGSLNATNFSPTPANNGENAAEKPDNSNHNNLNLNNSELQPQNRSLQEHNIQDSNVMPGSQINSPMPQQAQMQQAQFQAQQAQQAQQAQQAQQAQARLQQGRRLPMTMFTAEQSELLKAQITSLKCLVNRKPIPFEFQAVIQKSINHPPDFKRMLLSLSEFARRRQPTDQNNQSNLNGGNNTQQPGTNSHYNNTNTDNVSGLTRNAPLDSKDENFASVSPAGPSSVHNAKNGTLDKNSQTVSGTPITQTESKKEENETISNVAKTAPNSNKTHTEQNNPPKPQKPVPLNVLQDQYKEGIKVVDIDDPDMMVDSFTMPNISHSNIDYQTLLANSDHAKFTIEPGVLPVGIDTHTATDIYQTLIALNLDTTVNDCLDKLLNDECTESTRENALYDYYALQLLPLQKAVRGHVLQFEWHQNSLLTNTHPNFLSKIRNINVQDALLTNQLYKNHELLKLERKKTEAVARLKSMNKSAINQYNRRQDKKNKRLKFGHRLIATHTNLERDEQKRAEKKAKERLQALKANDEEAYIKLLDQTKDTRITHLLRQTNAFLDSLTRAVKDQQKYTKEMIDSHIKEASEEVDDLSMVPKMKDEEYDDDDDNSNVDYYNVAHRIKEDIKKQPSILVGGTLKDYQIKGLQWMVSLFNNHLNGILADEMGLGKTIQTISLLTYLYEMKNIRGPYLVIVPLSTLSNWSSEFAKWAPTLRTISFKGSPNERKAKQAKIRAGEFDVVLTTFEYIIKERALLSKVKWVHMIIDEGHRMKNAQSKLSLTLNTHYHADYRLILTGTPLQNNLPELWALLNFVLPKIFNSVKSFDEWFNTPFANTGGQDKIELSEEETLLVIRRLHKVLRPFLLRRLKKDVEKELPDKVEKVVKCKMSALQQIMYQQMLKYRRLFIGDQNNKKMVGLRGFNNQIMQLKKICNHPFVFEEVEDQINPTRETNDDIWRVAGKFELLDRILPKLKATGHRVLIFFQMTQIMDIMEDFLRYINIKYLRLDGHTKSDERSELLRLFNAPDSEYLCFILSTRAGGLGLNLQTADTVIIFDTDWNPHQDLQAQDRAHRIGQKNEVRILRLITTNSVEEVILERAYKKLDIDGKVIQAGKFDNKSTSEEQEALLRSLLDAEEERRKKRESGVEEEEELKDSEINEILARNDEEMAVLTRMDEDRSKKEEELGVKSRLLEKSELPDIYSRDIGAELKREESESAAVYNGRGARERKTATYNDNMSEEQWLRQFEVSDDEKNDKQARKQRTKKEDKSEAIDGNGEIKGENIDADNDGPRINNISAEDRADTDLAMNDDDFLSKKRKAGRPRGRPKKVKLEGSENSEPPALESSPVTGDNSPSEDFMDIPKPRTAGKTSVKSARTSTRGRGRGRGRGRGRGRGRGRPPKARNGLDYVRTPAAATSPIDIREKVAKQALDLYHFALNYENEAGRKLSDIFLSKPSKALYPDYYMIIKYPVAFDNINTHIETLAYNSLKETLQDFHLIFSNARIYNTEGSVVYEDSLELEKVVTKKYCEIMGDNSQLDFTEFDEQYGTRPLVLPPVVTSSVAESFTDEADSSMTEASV
UniProt Q12406: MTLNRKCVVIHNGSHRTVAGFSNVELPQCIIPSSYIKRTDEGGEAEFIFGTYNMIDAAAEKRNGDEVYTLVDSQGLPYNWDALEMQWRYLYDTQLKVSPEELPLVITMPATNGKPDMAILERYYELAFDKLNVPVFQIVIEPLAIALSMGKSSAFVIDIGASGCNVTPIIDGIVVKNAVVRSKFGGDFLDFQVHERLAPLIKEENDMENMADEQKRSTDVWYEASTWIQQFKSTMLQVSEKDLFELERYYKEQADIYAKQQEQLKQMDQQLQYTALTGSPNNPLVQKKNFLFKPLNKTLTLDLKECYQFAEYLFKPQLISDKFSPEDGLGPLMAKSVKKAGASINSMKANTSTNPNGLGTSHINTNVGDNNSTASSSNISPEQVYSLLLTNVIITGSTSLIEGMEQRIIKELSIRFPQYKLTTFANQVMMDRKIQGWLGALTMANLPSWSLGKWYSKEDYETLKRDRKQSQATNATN
UniProt Q05123: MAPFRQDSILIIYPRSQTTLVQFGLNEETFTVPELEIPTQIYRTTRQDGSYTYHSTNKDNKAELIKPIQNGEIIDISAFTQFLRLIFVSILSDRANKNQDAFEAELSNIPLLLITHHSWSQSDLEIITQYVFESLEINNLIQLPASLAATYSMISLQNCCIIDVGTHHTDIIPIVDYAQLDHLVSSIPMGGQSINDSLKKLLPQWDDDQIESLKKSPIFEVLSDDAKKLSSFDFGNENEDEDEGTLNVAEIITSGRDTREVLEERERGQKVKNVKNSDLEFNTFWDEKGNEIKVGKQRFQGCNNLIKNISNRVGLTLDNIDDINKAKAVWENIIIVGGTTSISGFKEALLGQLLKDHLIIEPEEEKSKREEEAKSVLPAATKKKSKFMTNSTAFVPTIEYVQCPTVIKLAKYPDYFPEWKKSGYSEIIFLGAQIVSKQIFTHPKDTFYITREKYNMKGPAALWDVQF
UniProt P53330: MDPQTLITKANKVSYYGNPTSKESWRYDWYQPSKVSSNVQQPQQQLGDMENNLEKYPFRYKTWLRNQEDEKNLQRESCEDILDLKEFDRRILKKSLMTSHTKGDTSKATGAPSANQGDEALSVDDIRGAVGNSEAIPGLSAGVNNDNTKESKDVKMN
UniProt P18480: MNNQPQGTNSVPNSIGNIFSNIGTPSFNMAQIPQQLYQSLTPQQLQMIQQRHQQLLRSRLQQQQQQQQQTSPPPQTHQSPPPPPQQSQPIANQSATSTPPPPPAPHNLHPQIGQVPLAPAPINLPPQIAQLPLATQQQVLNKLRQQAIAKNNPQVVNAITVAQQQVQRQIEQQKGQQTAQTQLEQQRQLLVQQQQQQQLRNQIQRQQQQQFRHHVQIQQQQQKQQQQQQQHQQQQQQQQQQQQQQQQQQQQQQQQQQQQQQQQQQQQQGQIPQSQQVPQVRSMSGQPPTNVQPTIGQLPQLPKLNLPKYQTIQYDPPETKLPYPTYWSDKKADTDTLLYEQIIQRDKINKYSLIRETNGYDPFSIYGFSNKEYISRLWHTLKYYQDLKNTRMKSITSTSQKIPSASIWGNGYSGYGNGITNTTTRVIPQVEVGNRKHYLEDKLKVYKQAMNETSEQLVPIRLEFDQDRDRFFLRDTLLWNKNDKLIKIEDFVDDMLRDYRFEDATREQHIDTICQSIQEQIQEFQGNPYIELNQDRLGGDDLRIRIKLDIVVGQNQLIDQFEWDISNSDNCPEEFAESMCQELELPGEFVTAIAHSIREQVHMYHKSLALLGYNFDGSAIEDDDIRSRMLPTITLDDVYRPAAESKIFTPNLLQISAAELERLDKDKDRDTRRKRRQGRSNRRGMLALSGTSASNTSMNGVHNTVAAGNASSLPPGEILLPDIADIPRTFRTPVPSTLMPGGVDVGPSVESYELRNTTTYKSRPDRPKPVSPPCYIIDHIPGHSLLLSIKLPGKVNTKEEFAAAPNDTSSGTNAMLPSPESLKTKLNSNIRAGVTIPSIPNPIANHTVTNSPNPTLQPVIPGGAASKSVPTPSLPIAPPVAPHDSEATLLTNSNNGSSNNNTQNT
UniProt P18888: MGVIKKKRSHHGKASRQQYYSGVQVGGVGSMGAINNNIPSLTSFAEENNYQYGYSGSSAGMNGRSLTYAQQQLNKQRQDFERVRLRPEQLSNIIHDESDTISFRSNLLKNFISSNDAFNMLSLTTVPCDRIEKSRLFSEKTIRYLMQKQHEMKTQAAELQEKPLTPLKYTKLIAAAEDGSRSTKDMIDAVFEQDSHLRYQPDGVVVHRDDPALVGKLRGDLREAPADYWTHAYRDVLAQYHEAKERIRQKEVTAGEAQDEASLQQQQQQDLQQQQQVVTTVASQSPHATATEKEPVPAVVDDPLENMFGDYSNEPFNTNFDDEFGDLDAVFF
UniProt P53628: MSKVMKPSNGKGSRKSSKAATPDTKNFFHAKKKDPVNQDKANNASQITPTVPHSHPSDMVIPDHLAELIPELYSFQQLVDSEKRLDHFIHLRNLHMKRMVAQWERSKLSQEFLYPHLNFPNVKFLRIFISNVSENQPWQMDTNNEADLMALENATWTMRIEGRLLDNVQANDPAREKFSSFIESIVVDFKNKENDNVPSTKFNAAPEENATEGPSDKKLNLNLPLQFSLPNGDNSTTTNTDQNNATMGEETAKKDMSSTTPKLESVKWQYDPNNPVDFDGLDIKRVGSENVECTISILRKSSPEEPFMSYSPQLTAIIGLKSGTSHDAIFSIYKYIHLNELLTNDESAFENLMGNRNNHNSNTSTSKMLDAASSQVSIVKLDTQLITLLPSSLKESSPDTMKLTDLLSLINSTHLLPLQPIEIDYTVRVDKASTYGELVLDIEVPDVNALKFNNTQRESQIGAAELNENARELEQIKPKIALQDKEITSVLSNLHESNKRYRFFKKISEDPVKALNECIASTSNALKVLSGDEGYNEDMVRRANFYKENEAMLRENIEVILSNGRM
UniProt P32591: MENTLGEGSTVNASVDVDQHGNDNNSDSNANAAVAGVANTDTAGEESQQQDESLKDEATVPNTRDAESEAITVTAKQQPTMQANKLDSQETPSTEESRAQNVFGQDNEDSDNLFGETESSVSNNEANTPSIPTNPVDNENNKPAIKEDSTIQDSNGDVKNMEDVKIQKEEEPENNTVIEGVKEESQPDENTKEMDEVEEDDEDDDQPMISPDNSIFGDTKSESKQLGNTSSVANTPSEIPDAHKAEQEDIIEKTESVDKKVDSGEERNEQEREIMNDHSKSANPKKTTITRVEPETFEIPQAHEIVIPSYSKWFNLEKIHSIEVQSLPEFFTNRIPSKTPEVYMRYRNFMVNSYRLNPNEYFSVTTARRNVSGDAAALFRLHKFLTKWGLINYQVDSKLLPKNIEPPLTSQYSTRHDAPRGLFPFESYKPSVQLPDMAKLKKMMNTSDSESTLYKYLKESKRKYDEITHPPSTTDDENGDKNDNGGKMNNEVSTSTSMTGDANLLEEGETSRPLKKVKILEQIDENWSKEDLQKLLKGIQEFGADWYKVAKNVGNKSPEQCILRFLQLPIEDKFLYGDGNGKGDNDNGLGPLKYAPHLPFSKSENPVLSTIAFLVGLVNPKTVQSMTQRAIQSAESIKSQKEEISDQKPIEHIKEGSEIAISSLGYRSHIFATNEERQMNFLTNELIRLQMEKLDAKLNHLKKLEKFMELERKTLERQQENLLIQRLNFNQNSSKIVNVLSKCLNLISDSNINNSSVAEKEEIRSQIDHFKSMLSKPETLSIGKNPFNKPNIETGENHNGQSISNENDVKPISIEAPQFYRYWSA
UniProt P43554: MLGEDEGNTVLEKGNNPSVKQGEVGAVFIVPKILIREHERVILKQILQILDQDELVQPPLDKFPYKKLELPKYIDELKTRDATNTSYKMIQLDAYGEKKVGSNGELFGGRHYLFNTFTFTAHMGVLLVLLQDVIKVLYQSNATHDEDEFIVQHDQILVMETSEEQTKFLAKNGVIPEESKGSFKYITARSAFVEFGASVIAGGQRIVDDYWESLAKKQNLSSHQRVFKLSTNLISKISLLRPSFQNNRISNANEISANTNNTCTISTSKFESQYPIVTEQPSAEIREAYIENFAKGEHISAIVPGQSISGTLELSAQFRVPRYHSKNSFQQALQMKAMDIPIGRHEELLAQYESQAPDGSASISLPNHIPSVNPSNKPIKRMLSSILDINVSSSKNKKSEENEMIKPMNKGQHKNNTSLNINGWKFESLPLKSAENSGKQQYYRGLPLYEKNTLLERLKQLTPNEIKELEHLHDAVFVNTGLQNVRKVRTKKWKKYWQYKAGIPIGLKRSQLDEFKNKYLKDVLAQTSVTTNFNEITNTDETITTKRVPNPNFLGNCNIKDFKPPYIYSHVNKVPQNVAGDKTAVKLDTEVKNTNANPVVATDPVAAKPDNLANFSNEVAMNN
UniProt P35189: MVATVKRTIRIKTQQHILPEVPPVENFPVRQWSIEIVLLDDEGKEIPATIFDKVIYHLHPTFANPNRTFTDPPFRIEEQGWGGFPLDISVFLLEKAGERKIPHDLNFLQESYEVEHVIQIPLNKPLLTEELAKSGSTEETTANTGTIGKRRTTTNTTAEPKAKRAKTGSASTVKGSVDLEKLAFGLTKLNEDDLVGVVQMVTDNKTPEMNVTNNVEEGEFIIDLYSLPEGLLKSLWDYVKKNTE

B1: Snf11 (endogenous) (protein, UniProt P38956 1-169)
chain: MSSEIAYSNTNTNTENENRNTGAGVDVNTNANANANATANATANATANATAELNLPTVDEQRQYKVQLLLHINSILLARVIQMNNSLQNNLQNNINNSNNNNIIRIQQLISQFLKRVHANLQCISQINQGVPSAKPLILTPPQLANQQQPPQDILSKLYLLLARVFEIW
B2: Rmt2 (endogenous) (enzyme, UniProt Q03305 1-412)
chain: MSELHALLTFPERPISQSYYVPKLQHFLKSGIPATYTLEQVAAFEHEEKNRNGDKEFRESTDDNKTSNTTPLHVLARSLPLDIKDEELQVVMDMMNILFEYGAGWNFIDYEDKTVGDLFLERNQSRESPLYRRLVEAGVSAELLLRKLNGGDVEFLDTDELIGIEPEESVQTAVDGQKEESVGSDDDATAANQQVYLKTELEYKDDALITKENKDGVMMDWETKIMELASETLFPDPEATNSATILNIGFGMGIIDTFIQARKPYRHYICEAHPDVLAKMKMDGWYEKDNVVILEGRWQDTLNNLLDKGEVFFDGIYYDTFSEHYQDILDLYDVVVGLIKPEGVFSFFNGLGADRSLCYDVYKEIVEIDVATYGMKCDYTRYSLDEQLPDWNDVKRSYFNCNYYYHPRITFA
B3: Hmt1 (also termed Rmt1) (endogenous) (enzyme, UniProt P38074 1-348)
chain: MSKTAVKDSATEKTKLSESEQHYFNSYDHYGIHEEMLQDTVRTLSYRNAIIQNKDLFKDKIVLDVGCGTGILSMFAAKHGAKHVIGVDMSSIIEMAKELVELNGFSDKITLLRGKLEDVHLPFPKVDIIISEWMGYFLLYESMMDTVLYARDHYLVEGGLIFPDKCSIHLAGLEDSQYKDEKLNYWQDVYGFDYSPFVPLVLHEPIVDTVERNNVNTTSDKLIEFDLNTVKISDLAFKSNFKLTAKRQDMINGIVTWFDIVFPAPKGKRPVEFSTGPHAPYTHWKQTIFYFPDDLDAETGDTIEGELVCSPNEKNNRDLNIKISYKFESNGIDGNSRSRKNEGSYLMH

Molecular target: Snf2-GFP (S. cerevisiae) (UniProt P22082)
Test: affinity purification with mass spectrometry; Snf2-GFP purified from WT and set1∆ cells on GFP nanobody-coated Dynabeads in TMG 50; compared with a no-tag control

Molecule	binding
Arp7 (endogenous) (from UniProt Q12406 1-477)	binds
Arp9 (endogenous) (from UniProt Q05123 1-467)	binds
Rtt102 (endogenous) (from UniProt P53330 1-157)	binds
Snf5 (endogenous) (from UniProt P18480 1-905)	binds
Snf6 (endogenous) (from UniProt P18888 1-332)	binds
Snf12 (endogenous) (from UniProt P53628 1-566)	binds
Swi1 (endogenous) (from UniProt P09547 1-1314)	binds
Swi3 (endogenous) (from UniProt P32591 1-825)	binds
Swp82 (endogenous) (from UniProt P43554 1-623)	binds
Taf14 (endogenous) (from UniProt P35189 1-244)	binds
B1	binds
B2	binds
B3	no binding

No constants are given. Whether binding was seen depends on the method and setting. In cells and extracts the contact can be indirect. Here binding means that the protein was enriched with, or labelled near, the bait; the list need not be complete. No binding means not detected with the bait.
